# Assay results: PubChem BioAssay AID1671190 (National Center for Advancing Translational Sciences (NCATS), 2021)
# Protein sequences, listed by entry. Tags and fused reporters are not part of them. Lines headed by an entry give the natural chain unless they say otherwise; changes in a name come on top.
# UniProt P18054: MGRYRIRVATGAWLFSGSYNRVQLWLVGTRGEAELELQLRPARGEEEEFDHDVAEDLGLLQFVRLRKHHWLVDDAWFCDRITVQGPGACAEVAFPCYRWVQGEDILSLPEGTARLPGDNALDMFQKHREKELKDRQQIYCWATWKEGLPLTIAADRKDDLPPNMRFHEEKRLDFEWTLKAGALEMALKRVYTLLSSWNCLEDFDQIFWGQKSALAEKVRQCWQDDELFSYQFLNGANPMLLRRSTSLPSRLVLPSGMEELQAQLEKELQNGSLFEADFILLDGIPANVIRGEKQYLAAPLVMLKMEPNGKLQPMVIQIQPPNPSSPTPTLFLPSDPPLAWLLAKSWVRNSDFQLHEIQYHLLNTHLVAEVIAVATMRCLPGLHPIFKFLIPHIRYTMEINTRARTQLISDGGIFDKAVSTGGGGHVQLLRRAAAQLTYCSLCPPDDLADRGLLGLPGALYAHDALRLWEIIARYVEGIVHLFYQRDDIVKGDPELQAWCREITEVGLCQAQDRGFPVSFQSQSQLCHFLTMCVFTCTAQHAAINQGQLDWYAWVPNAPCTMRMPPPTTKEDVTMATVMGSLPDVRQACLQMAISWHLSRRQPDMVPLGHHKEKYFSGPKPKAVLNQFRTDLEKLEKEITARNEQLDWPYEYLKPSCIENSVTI
# Where “and” joins values, the source holds several entries; their conditions need not be identical. Equal entries are not always repeated. The campaign covered roughly 580,000 compounds. About 6,100 (1.1%) were called active. Inconclusive means that the source gave no clear call. Such entries were picked first, then a sample of the others. The call rests on the fitted dose curve; in most records, active means well fitted inhibition curve with a large enough effect; inconclusive means small, poorly fitted or top-dose-only effect, or another doubt; inactive means no such curve, though single readings can be large or run the other way. Potencies beside an inconclusive call are fits to weak or partial responses and may not hold up.
# Biological target: Polyunsaturated fatty acid lipoxygenase ALOX12 (Homo sapiens) (UniProt P18054)
# Experiment: Primary qHTS assay for inhibitors of human arachidonate 12S-lipoxygenase (ALOX12): Round 2
# Conditions: purified 12hLO, xylenol orange hydroperoxide absorbance; activity change, negative = inhibition: at 108 µM (top of the series) unless noted
# Procedure, shortened: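 Purified human 12hLO at 150 nM in 25 mM Hepes, 0.01% Triton X-100, pH 7.0, preincubated 15 min at room temperature with compound. Reaction started with 40 uM arachidonic acid, 30 min at room temperature. Hydroperoxide measured by Fe-xylenol orange, 573/405 nm absorbance ratio.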
# On the % scale 0 is the no-effect control and ±100 the full control effect; potency means the concentration at half of the fitted maximal effect.
SMILES,Potency,"activity change, negative = inhibition"
CCC(=O)Nc1ccc(S(=O)(=O)N2CCc3ccccc32)cc1,"inconclusive: 56.2 µM [inhibitor, partial curve, poor fit]",
COc1ccc(OC)c(S(=O)(=O)Nc2ccc3oc(C)c(C(C)=O)c3c2)c1,,inactive: -7.93%
OCCN(CCO)c1ccc(C(c2ccc(Cl)cc2)c2ccc(N(CCO)CCO)cc2Cl)c(Cl)c1,"inconclusive: 79.4 µM [inhibitor, single point]",
Cn1nc(C(=O)Nc2cccc(C(F)(F)F)c2)ccc1=O,"inconclusive: 112 µM [inhibitor, partial curve, poor fit]",
Cn1c(=O)c2c(nc(CN(Cc3ccccc3)Cc3ccccc3)n2Cc2ccccc2)n(C)c1=O,,inactive: 23.1%
COc1ccccc1-c1c(C#N)c(N)nc2c1CCc1ccccc1-2,"inconclusive: 56.2 µM [inhibitor, partial curve, poor fit]",
CN(C(=O)c1ccco1)c1nnc(-c2ccc(F)cc2)s1,,inactive: 14.6%
O=C(Oc1coc(CSc2ncccn2)cc1=O)c1cccc([N+](=O)[O-])c1,"inconclusive: 25.1 µM [inhibitor, partial curve, poor fit]",
CC(C)CC(C(=O)Nc1oc(-c2ccccc2)c(-c2ccccc2)c1C#N)N1C(=O)c2ccccc2C1=O (centres undefined),,inactive: 119% [at 57.4 µM]
Cc1ccc(NC(=O)c2ccc(COc3ccccc3[N+](=O)[O-])o2)nc1,"inconclusive: 50.1 µM [inhibitor, partial curve, poor fit]",
O=C(O)c1ccc(/C=C/C(=O)c2cccc(N3CCOCC3)c2)cc1,"inconclusive: 31.6 µM [inhibitor, partial curve, poor fit]",
CCOC(=O)c1oc2cc(O)ccc2c(=O)c1-c1nc2ccccc2s1,"inconclusive: 35.5 µM [inhibitor, partial curve]",
COc1ccccc1/C=C/C(=O)OCCN1C(=O)c2ccccc2C1=O,"inconclusive: 112 µM [inhibitor, single point]",
COc1ccc(N=C2SCC(c3ccc(C)cc3)=NN2CCO)cc1,"inconclusive: 39.8 µM [inhibitor, partial curve, poor fit]",
CCCNc1ccc(-c2nc(-c3ccco3)no2)cc1[N+](=O)[O-],,inconclusive: -30.6% [inhibitor]
COCC1CN(C(C)=O)CC12CCN(Cc1ccc(Cl)c(F)c1)CC2 (centres undefined),"inconclusive: 44.7 µM [inhibitor, partial curve]",
CCSC1=C(C#N)C(CC(C)C)C2=C(CCCC2=O)N1 (centres undefined),"inconclusive: 89.1 µM [inhibitor, partial curve, poor fit]",
COc1cccc(CNC(=O)Cn2ccn3nc(-c4ccccc4)c(CO)c3c2=O)c1OC,"inconclusive: 56.2 µM [inhibitor, partial curve]",
c1ccc(-c2ccc(-c3cn4c(n3)CCC4)cc2)cc1,"inconclusive: 100 µM [inhibitor, single point]",
Cn1c(C(C#N)/C(=N\S(=O)(=O)c2cccs2)c2ccccc2)nc2ccccc21 (centres undefined),"inconclusive: 1.78 µM [inhibitor, full curve, poor fit]",
CN(C)c1ccc(-c2cc(N(C)Cc3ccco3)ncn2)cc1,,inactive: -23.7%
Fc1ccccc1CNC(=S)Nc1cccc(C(F)(F)F)c1,"inconclusive: 44.7 µM [inhibitor, partial curve, poor fit]",

SMILES,Potency,"activity change, negative = inhibition"
COc1ccc(C2Sc3ccccc3N(CCN(C)C)C(=O)C2OC(C)=O)cc1 (centres undefined),"inconclusive: 70.8 µM [inhibitor, partial curve, poor fit]",
COc1cc(F)ccc1-c1ccnc2nc(Cc3ccc(F)cc3)nn12,,inactive: 49.3%
Cc1cccnc1NC(=S)NC(=O)c1cccs1,"inconclusive: 3.16 µM [inhibitor, full curve, poor fit]",
COc1ccc(NC(=O)CCc2c(C)[nH]n(-c3ccc(F)cc3)c2=O)cc1OC,"inconclusive: 79.4 µM [inhibitor, single point]",
CCOC(=O)c1ccccc1NC(=O)CN1C(=O)NC2(CCOCC2)C1=O,"inconclusive: 28.2 µM [inhibitor, partial curve, poor fit]",
Cc1nccn1CC(=O)c1ccc(O)c(O)c1,,inactive: -17.1%
CCNC(=O)C1(C)CCN(C(=O)c2ccccc2C(F)(F)F)C1 (centres undefined),"inconclusive: 44.7 µM [inhibitor, partial curve, poor fit]",
CCc1ccc(N2CC(c3noc(-c4ccco4)n3)CC2=O)cc1 (centres undefined),,inactive: -7.5%
Cc1ccc(-n2c(-c3ccc(Cl)cc3)c[n+]3c2CCC3)cc1,,inactive: 200%
Cc1ccc(S(=O)(=O)N(C)C)cc1NC(=O)COC(=O)Cc1ccc(Br)cc1,"inconclusive: 126 µM [inhibitor, single point]",
CCn1cc(S(=O)(=O)N2CCC3(CC2)CC(OCC2CC2)CCO3)cn1 (centres undefined),,inactive: 22.5%
COc1ccccc1-n1c(SCC(=O)O)nc2c(sc(=S)n2-c2ccc(C)c(C)c2)c1=O,"inconclusive: 50.1 µM [inhibitor, partial curve, poor fit]",
O=C(Nc1ccc(N2CCCC2)c(Cl)c1)c1ccc([N+](=O)[O-])cc1,"inconclusive: 44.7 µM [inhibitor, partial curve, poor fit]",
CCCN1CCCc2cc(CN)ccc21,"inconclusive: 0.251 µM [inhibitor, full curve, poor fit]",
C=CCC(c1ccccc1F)N(CCN1CCOCC1)C(=O)Nc1cccc(Cl)c1 (centres undefined),,inconclusive: -34.9% [inhibitor]
CC(C)[C@H]1COCCS(=O)(=O)N1Cc1ccccc1,"inconclusive: 39.8 µM [inhibitor, partial curve, poor fit]",
O=[N+]([O-])/C=C/c1ccc2c(ccn2Cc2ccccc2)c1,,inactive: -11.5%
O=C1OC(c2ccc(O)cc2)(c2ccccc2O)c2ccccc21 (centres undefined),"inconclusive: 70.8 µM [inhibitor, partial curve, poor fit]",
COc1cc(NC(=O)COC(=O)c2ccc3ccccc3n2)cc(OC)c1,"inconclusive: 56.2 µM [inhibitor, partial curve, poor fit]",
O=C(COC(=O)c1cccnc1Cl)c1ccc(Cl)cc1Cl,"inconclusive: 44.7 µM [inhibitor, partial curve]",
Cc1cc(NC(=O)CSc2nnc(-c3ccncc3)n2N)ccc1Br,"inconclusive: 50.1 µM [inhibitor, partial curve, poor fit]",
FC(F)(F)c1cnc(Sc2nnc(-c3ccncc3)n2C2CC2)c(Cl)c1,,inactive: 17%

SMILES,Potency,"activity change, negative = inhibition"
COc1cc(CNCCc2ccccc2)cc(Br)c1OCC(=O)Nc1ccccc1C,"inconclusive: 50.1 µM [inhibitor, partial curve, poor fit]",
Cc1ccc(Nc2nc(-c3ccccc3)cs2)cc1C,"inconclusive: 8.91 µM [inhibitor, full curve, poor fit]",
Cc1ccc(/C(O)=C2/C(=O)C(=O)N(Cc3cccnc3)C2c2ccccn2)cc1 (centres undefined),"inconclusive: 12.6 µM [inhibitor, partial curve, poor fit]",
CCNC(=O)NC(=O)CSc1nc(-c2ccco2)nc2ccccc12,"inconclusive: 56.2 µM [inhibitor, partial curve, poor fit]",
COc1cccc(NCc2cc(=O)oc3cc(C)c(O)cc23)c1,"inconclusive: 0.282 µM [inhibitor, full curve, poor fit]",
COc1ccc2c(c1)OCCN(c1ccc(NC(=O)c3cccc(C)c3)cc1C(=O)O)C2,"inconclusive: 5.01 µM [inhibitor, full curve, poor fit]",
COc1ccc(S(=O)(=O)N2CCCCCC2)cc1C(=O)N(C)Cc1ccc(F)cc1,,inactive: -1.85%
Cc1ccc(-c2nc(C#N)c(N3CCN(C(=O)c4ccco4)CC3)o2)cc1,"inconclusive: 0.0316 µM [inhibitor, full curve, poor fit]",
CC(C)(C)c1ccc(C(=O)Nc2cccc3ncccc23)cc1,"inconclusive: 89.1 µM [inhibitor, single point] and inconclusive: 44.7 µM [inhibitor, partial curve]",
Cc1c(-c2nc(N)nc(Nc3ccc(F)cc3)n2)oc2ccccc12,,inactive: 0%
CCOc1ccc(-c2nc(S(=O)(=O)c3ccccc3)c(N3CCC(C(N)=O)CC3)o2)cc1,"inconclusive: 35.5 µM [inhibitor, partial curve, poor fit]",
COc1cc(OC)nc(Nc2nc(C(N)Cc3ccc(Cl)cc3)cs2)n1 (centres undefined),"inconclusive: 50.1 µM [inhibitor, partial curve, poor fit]",
O=C(c1ccc2c(c1)OCO2)N1CCN(c2ccc(C(F)(F)F)cn2)CC1,,inactive: -0.246%
CC1CCN(C2=C(NS(=O)(=O)c3ccccc3)C(=O)c3ccccc3C2=O)CC1,"inconclusive: 44.7 µM [inhibitor, partial curve, poor fit]",
N#Cc1ccccc1CSc1nccc(C(F)(F)F)n1,,inactive: -39.3%
CCc1ccc(/C=N\NC(=O)c2ccc(Br)o2)s1,,inactive: 6.77%
CCc1ccccc1N(C)S(=O)(=O)c1ccc(/C=C\c2onc(C)c2NC(=O)C2CC2)cc1,,inactive: -9.27%
CCOc1cccc(CN(C)CC2CCCN(CCc3ccc(Cl)cc3)C2)c1O (centres undefined),"inconclusive: 39.8 µM [inhibitor, partial curve, poor fit]",
COCC(=O)N1CC[C@@H](CC(=O)O)[C@@H](CC2=NCCc3cc(OC)ccc32)C1,"inconclusive: 70.8 µM [inhibitor, partial curve, poor fit]",
Cc1nn(CC(=O)NCc2ccc(N(C)C)cc2)c(=O)c2nc(C(C)C)sc12,"inconclusive: 89.1 µM [inhibitor, single point]",

# Exported as tab-separated lines: 4 of the compounds above.
SMILES	Potency	activity change, negative = inhibition
COc1ccc(C2Sc3ccccc3N(CCN(C)C)C(=O)C2OC(C)=O)cc1 (centres undefined)	inconclusive: 70.8 µM [inhibitor, partial curve, poor fit]	
O=C1OC(c2ccc(O)cc2)(c2ccccc2O)c2ccccc21 (centres undefined)	inconclusive: 70.8 µM [inhibitor, partial curve, poor fit]	
O=C(COC(=O)c1cccnc1Cl)c1ccc(Cl)cc1Cl	inconclusive: 44.7 µM [inhibitor, partial curve]	
COc1ccc(S(=O)(=O)N2CCCCCC2)cc1C(=O)N(C)Cc1ccc(F)cc1		inactive: -1.85%
